PubChem BioAssay AID651595 (National Center for Advancing Translational Sciences (NCATS), 2012)
Fewer than 10 of roughly 1,100 compounds were called active. Another 6% or so got no clear call; they are omitted. Calls come from the whole dose curve; as a rule, active = well fitted cell-killing curve with a large enough effect; inconclusive = small, poorly fitted or top-dose-only effect; inactive = flat fitted curve, though single readings scatter. The list shows a part of the results.

Experiment: qHTS of Nrf2 Activators: Hit Validation in Cytotox Assay;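 note: compound exposure lasted 24 hours before the ATP readout; 0% is about no effect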
Settings: Cell viability counter-screen for Nrf2 activator hits; series mostly up to 46.1 µM; activity change, negative = cytotoxicity: at the top concentration
Procedure, shortened: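 AREc32_fluc cells plated overnight, then treated at 7 concentrations for 24 h at 37 °C. Viability from intracellular ATP by CellTiter-Glo luminescence after 30 min at room temperature; cytotoxic compounds flagged active.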

SMILES	activity change, negative = cytotoxicity
COc1ccccc1NC(=O)CSc1ccc(-c2ccco2)nn1	inactive: 4.85%
CN(Cc1ccccc1)C(=O)c1ccc([N+](=O)[O-])o1	inactive: -27.9%
CC(C)(C)/C(O)=C/c1nc2cc(Cl)ccc2oc1=O	inactive: 1.31%
Cc1cc(C)cc(NC(=O)/C=C/c2ccc([N+](=O)[O-])s2)c1	inactive: 3.51%
O=C(Cn1cnc2scc(-c3cccc([N+](=O)[O-])c3)c2c1=O)NCc1ccco1	inactive: -1.79%
CC(=O)Nc1cc2oc3ccccc3c2cc1[N+](=O)[O-]	inactive: 0.886%
O=c1[nH]c(/C=C/c2ccccc2[N+](=O)[O-])nc2ccccc12	inactive: 0.48%
CC(=O)COc1ccc2c(c1C)O/C(=C\c1ccco1)C2=O	inactive: 2.13%
COC(=O)C1=C(C)NC(=O)/C1=C\c1ccco1	inactive: -7.1%
O=C(NC(=S)Nc1ccccc1O)c1ccccc1Cl	inactive: 8.07%
O=C(COC(=O)/C=C/c1ccco1)Nc1ccc(F)cc1Cl	inactive: 1.23%
COC(=O)c1c(NC(=O)c2ccccc2)sc(C(N)=O)c1C	inactive: 2.59%
CS(=O)(=O)Nc1ccc(C(=O)Nc2cccc([N+](=O)[O-])c2)cc1	inactive: -7.34%
O=c1oc2ccc(Br)cc2cc1-c1nc2ccccc2o1	inactive: 0.471%
COc1cc(Cl)cc(/C=C/c2ccc3cccc(O)c3n2)c1OC	inactive: -0.829%
O=C(N/N=C/C=C/c1ccco1)c1cnccn1	inactive: 6.3%
COc1ccccc1NC(=O)C(=O)Nc1ccccn1	inactive: -2.4%
c1ccc(CNc2nc(NCc3ccco3)nc(N3CCOCC3)n2)cc1	inactive: 0.715%
O=c1cc(-c2ccccc2)oc2ccc(Cl)cc12	inactive: 2.11%
O=S(=O)(c1ccc(F)cc1)c1snnc1-c1ccccc1	inactive: 1.49%
Cc1ccc(S(=O)(=O)c2nc(S(C)(=O)=O)sc2N2CCC3(CC2)OCCO3)cc1	inactive: -1.38%
O=CNc1c(Cl)cc2c(c1Cl)Cc1cc([N+](=O)[O-])ccc1-2	inactive: 4.06%
O=[N+]([O-])c1ccc(/C=N/Nc2ccc3ccccc3c2)o1	inactive: -19.5%
O=C(CN1CC(=O)Oc2ccccc21)OCC(=O)c1ccc(F)cc1	inactive: 2.33%

SMILES	activity change, negative = cytotoxicity
CN(C)c1oc(/C=C/c2ccccc2)nc1C#N	inactive: -1.36%
CN(C)CCN(C(=O)/C=C/c1cccs1)c1nc2ccc(F)cc2s1	inactive: -13.7%
c1ccc(N=NC2=NN(c3ccccc3)CS2)cc1	inactive: -23.7%
O=c1cc(-c2cccc(Br)c2)oc2cccc(O)c12	inactive: -2.77%
CCc1nn2c(-c3ccco3)ccnc2c1-c1ccccc1	inactive: -2.57%
CCCNc1ccc(-c2nc(-c3ccco3)no2)cc1[N+](=O)[O-]	inactive: 2.86%
N#C/C(=C\C=C\c1ccccc1[N+](=O)[O-])C(=O)NC1CCCCC1	inactive: -13.2%
C(=N/n1c2ccccc2c2ccccc21)/c1ccco1	inactive: 1.19%
O=[N+]([O-])c1cc2c(cc1Br)-c1ccccc1C2	inactive: -10.4%
COc1ccc([N+](=O)[O-])cc1NC(=O)CSc1nccc(C)n1	inactive: -3.22%
O=C1COc2ccc(C(=O)COC(=O)/C=C/c3ccco3)cc2N1	inactive: -0.414%
CCOC(=O)c1ccccc1N/C=C/C(=O)c1ccccc1	inactive: 1.71%
C#CCSc1nc(-c2ccccc2)cc(C(F)(F)F)c1C#N	inactive: 5.58%
Cc1cc(-c2sccc2C)nc(-n2cccc2)n1	inactive: 6.26%
CC(C)OC(=O)c1cn(-c2ccccc2)nc1-c1ccco1	inactive: 10.7%
O=C(/C=C/c1ccc(-c2ccccc2[N+](=O)[O-])o1)c1ccccc1	inactive: -4.71%
O=C(Nc1ccccn1)Nc1ccccc1[N+](=O)[O-]	inactive: -1.04%
O/N=C/c1ccc2cccc(OCc3ccccc3)c2n1	inactive: 1.37%
Cc1ccc(O)c(NC(=O)c2cccc(NC(=O)c3ccco3)c2)c1	inactive: 2.1%
O=c1[nH]c(SCc2cccc([N+](=O)[O-])c2)nc2[nH]ncc12	inactive: 0.58%
C/C(=N/NC(=O)CNC(=O)/C=C/c1ccco1)c1ccc(Cl)cc1	inactive: -4.27%
O=C(NCc1ccco1)c1cc(=O)c2ccccc2o1	inactive: 9.98%
COc1ccc(NC(=O)c2cc(-c3ccco3)nc3ccccc23)cn1	inactive: 1.95%
Cc1cc(=O)oc2cc(NC(=O)c3ccccc3Cl)ccc12	inactive: -1.64%

SMILES	activity change, negative = cytotoxicity
O=C(Nc1nc(=O)c2ccccc2s1)c1ccccc1	inactive: -18.4%
Cc1ccc(-c2cc(C(F)(F)F)c(C#N)c(SCCC#N)n2)o1	inactive: 6.99%
Nc1c(Cl)c(Cl)nc(C(=O)N/N=C/c2ccco2)c1Cl	inactive: 2.18%
O=C(/C=C/Nc1ccc(F)c(Cl)c1)c1ccco1	inactive: -0.863%
C=C(NC(=O)C(=C)NC(=O)c1csc(C2=NC3c4csc(n4)C4NC(=O)c5csc(n5)C(C(C)(O)C(C)O)NC(=O)C5CSC(=N5)/C(=C/C)NC(=O)C(C(C)O)NC(=O)c5csc(n5)C3(CC2)NC(=O)C(C)NC(=O)C(=C)NC(=O)C(=C)NC(=O)C(C(C)C)NC2C=Cc3c(C(C)O)cc(nc3C2O)C(=O)OC4C)n1)C(N)=O (stereo unspecified)	inactive: -14.5%
Cc1sc(NC(=O)c2ccco2)c(CN2CCCCC2)c1C	inactive: -7.31%
Cc1cccc(N=C/C(C(=O)C(F)(F)F)=C(\O)c2ccco2)c1	inactive: 3%
NC(=O)c1c(NC(=O)c2ccc([N+](=O)[O-])o2)sc2c1CCCC2	inactive: 9.52%
COc1ccc(-c2cc3ccccc3c(=O)o2)cc1	inactive: -5.35%
O=C1C=C(C#Cc2ccccc2)C[C@@H](c2ccc(F)cc2)C1	inactive: -0.58%
COc1ccc(NC(=O)c2cc(-c3cccs3)on2)c(OC)c1	inactive: 6.78%
CCOC(=O)c1c(-c2ccco2)csc1NC(=O)CSc1nnc(N)s1	inactive: -11.5%
N=c1n(CCN2CCOCC2)c2ccccc2n1CC(=O)c1cccc([N+](=O)[O-])c1	inactive: -2.38%
O=C(Nc1cnc2ccccc2c1)c1ccco1	inactive: -0.954%
CC(=O)Oc1ccc(-c2nc3c(C)cccc3c(=O)o2)cc1	inactive: 9.54%
[O-][n+]1onc2c3ccnnc3ccc21	inactive: -1.61%
Oc1ccc(Cl)cc1/C=C/c1ccc2cccc(O)c2n1	inactive: -7.68%
C=CCn1c(SCC(C)=O)nc2scc(-c3ccco3)c2c1=O	inactive: 0.123%
CCNc1ccc(-c2nc(-c3ccco3)no2)cc1[N+](=O)[O-]	inactive: 4.03%
O=C(NCc1ccccc1)c1c(Cl)nc(Cl)c(Cl)c1Cl	inactive: 3.97%
OCCC#Cc1c(-c2ccsc2)sc2ccccc12	inactive: 2.25%
Cc1ccc(NC(=O)COCc2cc(-c3cccs3)on2)cc1Cl	inactive: 5.1%
O=C(O)c1ccc2c(=O)n3c(nc2c1)/C(=C/c1cccc(Cl)c1Cl)CC3	inactive: 4%

Structures listed so far that contain bromine, in the order listed:
SMILES	activity change, negative = cytotoxicity
O=c1oc2ccc(Br)cc2cc1-c1nc2ccccc2o1	inactive: 0.471%
O=c1cc(-c2cccc(Br)c2)oc2cccc(O)c12	inactive: -2.77%
O=[N+]([O-])c1cc2c(cc1Br)-c1ccccc1C2	inactive: -10.4%

Quoted from the listing.
COc1ccc(NC(=O)c2cc(-c3cccs3)on2)c(OC)c1 – activity change, negative = cytotoxicity: inactive: 6.78%
O=C(CN1CC(=O)Oc2ccccc21)OCC(=O)c1ccc(F)cc1 – activity change, negative = cytotoxicity: inactive: 2.33%
